Reference: US4216209A, “Tripeptide angiotensin converting enzyme inhibitors” (American Home Products Corporation, priority 1979, dated 1980)
Part of at least one peptide drawing is inferred or uncertain, most often the ends.

Tested on: spontaneously hypertensive rat (SHR)
Experiment: Antihypertensive test in conscious spontaneously hypertensive rats: arterial BP and pressor/depressor responses to i.v. angiotensin I and bradykinin after oral dosing
Assay type: in vivo
Conditions: male SHR, 5 mg/kg of body weight
Excerpt: Male SHR of the Okamoto-Aoki strain (purchased from Charles River Lakeview, Boston, Mass.) ranging in weight between 280 and 370 g are anesthetized with diethyl ether. Their left femoral arteries and veins are cannulated with polyethylene tubing of the appropriate size. Each animal is then placed in a rubber mesh jacket which is secured with four towel clamps. The animal is suspended via the towel clamps from a bar and allowed to recover from the anesthesia. The arterial cannula is connected to a Statham pressure transducer (Model P23, Gould Statham Instruments, Hato Rey, Porto Rico) which, in turn, is attached to a polygraph for recording arterial blood pressure (BP) and pulse rate.
When the BP has stabilized, the intravenous injection of the agonists, angiotensin I (AI) or bradykinin (B) is initiated. Each of the agonists is prepared daily from refrigerated stock solution (using distilled water as the diluent), and injected in a volume of 1 ml/kg (using physiological saline as the diluent) at the following doses: AI, 0.125 μg/kg and B, 5 μg/kg.
Enough time is allowed for the BP to return to preinjection levels before the next agonist is given. A dose of the compound to be tested is given orally seven to ten minutes after the injection of the last agonist. Four rats are used and the test compound is given by gastric gavage in a volume of 5 ml/kg of body weight. Heart rate and BP are measured at 5, 10, 15, 30, 45 and 60 minutes and at hourly intervals thereafter for a period of at least four hours after drug administration. At one and two hours after the test compound has been given, AI and B are injected again at the same concentration and in the same order as during the control period.

In the case of `CC(C)C[C@H](NC(=O)[C@H](Cc1c[nH]cn1)NC(=O)[C@@H]1CCCN1C(=O)[C@H](C)CS)C(=O)O` [N-[N-[1-(3-mercapto-2-D-methyl-1-oxopropyl)prolyl]histidyl]leucine], the “decrease in mean arterial BP” value (oral (gastric gavage), measured two hours after administration) is reported as 12%, the “reduction in angiotensin I response on BP” value (oral, angiotensin I 0.125 μg/kg i.v.) is reported as 69% and the “potentiation of bradykinin response” value (oral, bradykinin 5 μg/kg i.v.) is reported as 689%.
